The series is described as follows: general procedure: Fmoc solid-phase peptide synthesis; Wang Resin (1.1 mmol/g); Fmoc-Arg(pbf)-Wang Resin 0.53 mmol/g; DIC/HOBt. As to conditions: conjugation step; for final purity (method not given): HPLC.

From patent US11571480B2 (priority 2015, dated 2023) come the findings set out here.

Some peptides are written in HELM: one residue between dots, names in brackets for other building blocks, links after the first $.

As to “PEPTIDE1{[Pte].[gGlu].C.K.E.F.L.H.P.S.K.V.D.L.P.R}|CHEM1{[mcVCPABMMAE]}$PEPTIDE1,CHEM1,3:R3-1:R1$$$V2.0”, the conjugation yield turned out to be 85.02% and the “final purity (method not given)” value is given as 99.2%.

“PEPTIDE1{R.R.R.R.R.R.R.R.R.C.K.E.F.L.H.P.S.K.V.D.L.P.R}|CHEM1{[mcVCPABMMAE]}$PEPTIDE1,CHEM1,10:R3-1:R1$$$V2.0”: the conjugation yield came out at 81.34% and the “final purity (method not given)” value was found to be 98.7%.
